{
  "source": "patent US20240058352A1",
  "about": "“COMBINATION THERAPIES FOR THE TREATMENT OF CANCER” (Erasca, Inc., priority 2020, published 2024)",
  "test_system": "cell viability",
  "assay": "Cellular proliferation assay (percent CTG activity, FIG. 23C)",
  "assay_type": "cell-based",
  "conditions": "agent alone, cell line not stated",
  "note": "At least one compound was matched to its structure with a doubt left.",
  "data": [
    {"compound": "CC(=O)Nc1cccc(-n2c(=O)n(C3CC3)c(=O)c3c(Nc4ccc(I)cc4F)n(C)c(=O)c(C)c32)c1", "note": "[trametinib]", "values": [
      {"measurement": "percent CTG activity (cell viability), single agent", "result": "minimal effect on cell viability"}
    ]}
  ]
}
